Measurements: PubChem BioAssay AID2685 (National Center for Advancing Translational Sciences (NCATS), 2010)
The other results are listed elsewhere or left out. The main result of the screen is listed elsewhere. These columns were measured beside it and carry no call. The list favours compounds with an active or inconclusive main result. Words in brackets tell the shape of the fitted curve; partial curves, single points and poor fits give uncertain potencies. Where a SMILES comes first, the peptide text is derived from it. The star is where a group is joined. Boc = CC(C)(C)OC(=O)*; OBn = c1ccc(CO*)cc1

Test: qHTS Assay for Lipid Storage Modulators in Drosophila S3 Cells;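 for cell number change: cells counted by Cell Tracker Red CMTPX staining in the red channel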
Conditions: BODIPY lipid droplet fluorescence, 18-24 h; for cell number change: measured here: cell count max response, cells fed with added oleic acid
Outline: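 Drosophila S3 cells got compounds at several concentrations plus oleic acid (400 uM solution). Laser-scanning cytometry with 488 nm excitation read lipid droplets at 500-530 nm and cells at 575-640 nm. Percent activity was relative to 20 uM Triacsin C.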

[1] = measured here: lipid fluorescence (Fed channel) AC50, cells fed with added oleic acid
[2] = measured here: cell number channel AC50, cells fed with added oleic acid

SMILES | cell number change [%] | AC50 [1] | AC50 [2]
CC(C)CC(NC(=O)C(NC(=O)OC(C)(C)C)C(C)C)C(=O)NC(CCC(=O)OCc1ccccc1)C(N)=O (stereo not drawn) (Boc-Val-Leu-Glu(OBn)-NH2; configuration not given here) | -21.2 | – | –
COc1ccc(OC)c(C2C(C(=O)c3ccc(C)o3)=C(O)C(=O)N2c2cc(C)on2)c1 (centres undefined) | -10.1 | 6.51 µM [falling, single point] | –
COc1ccc(C(=O)Nc2ccccc2C(=O)NCCCn2ccnc2)cc1 | 1.03 | 0.116 µM [rising, full curve] | –
COCCNC(=S)NNC(=O)c1ccc(-n2cnnn2)cc1 | 36.5 | – | 29.1 µM [rising, single point]
CN1CCN(C2=Cc3ccccc3Sc3cc(F)c(Cl)cc32)CC1 | -69.5 | 14.6 µM [falling, partial curve] | 18.4 µM [falling, partial curve]
CCCCNc1nc(-c2ccccc2)cc(C(F)(F)F)c1C(N)=O | -52.5 | 20.6 µM [falling, partial curve, poor fit] | 20.6 µM [falling, partial curve, poor fit]
CC(=O)NC1=NC(=O)/C(=C/c2cc(C)n(-c3cccc(C(=O)O)c3)c2C)S1 | 36.7 | 29.1 µM [rising, single point] | –
COc1cccc(NC(=O)CN(C)C(=O)CCCc2c[nH]c3ccccc23)c1 | -34.6 | 29.1 µM [falling, single point] | 23.1 µM [falling, partial curve, poor fit]
CC(C)CCNC(=O)COc1cccc2c1OC(C)(C)C2 | 48.8 | – | 20.6 µM [rising, single point]
CCc1nnc(NC(=O)CCC(=O)N2CCN(c3cc(Cl)ccc3C)CC2)s1 | – | – | 4.11 µM [falling, partial curve, poor fit]
COc1cc2c(cc1NC(=O)c1ccc(C(C)(C)C)cc1)CCCC2 | – | 3.66 µM [falling, full curve] | –
Cc1ccc(CN(C)C(=O)c2ccccc2Sc2ccccc2C#N)cc1 | – | 0.58 µM [falling, single point] | –
CCC1(C)Cc2c(sc3nnn(CC(=O)Nc4cccc5ccccc45)c(=O)c23)CO1 (centres undefined) | -12.8 | 0.00461 µM [rising, full curve, poor fit] | –
Cn1c2ccccc2c(=O)c2c(=O)n(Cc3ccco3)c(COc3ccccc3)nc21 | 18.2 | 6.51 µM [rising, partial curve] | –
Cc1cc(C(=O)N2CCN(c3cc(Cl)ccc3C)CC2)on1 | 4.32 | 16.4 µM [falling, single point] | –
O=C(CC1C(=O)NCCN1Cc1ccc(-c2ccccc2)cc1)NCc1ccncc1 (centres undefined) | 23 | 16.4 µM [rising, partial curve, poor fit] | –
CCCCN(C(=O)c1ccc2c(c1)NC(=O)CS2)c1ccccc1 | 4.6 | – | –
CCc1ccc(C(=O)c2oc3nc(C)cc(C)c3c2N)cc1 | – | 32.6 µM [falling, partial curve, poor fit] | –
CCN1CCN(c2ccccc2NC(=O)C(C)Oc2ccc(C(C)=O)cc2)CC1 (centres undefined) | – | 23.1 µM [falling, partial curve] | –

Reprinted from the entries so far (3 entries):
SMILES | cell number change [%] | AC50 [1] | AC50 [2]
COc1cc2c(cc1NC(=O)c1ccc(C(C)(C)C)cc1)CCCC2 | – | 3.66 µM [falling, full curve] | –
Cc1ccc(CN(C)C(=O)c2ccccc2Sc2ccccc2C#N)cc1 | – | 0.58 µM [falling, single point] | –
CCC1(C)Cc2c(sc3nnn(CC(=O)Nc4cccc5ccccc45)c(=O)c23)CO1 (centres undefined) | -12.8 | 0.00461 µM [rising, full curve, poor fit] | –

(next part)

SMILES | cell number change [%] | AC50 [1] | AC50 [2]
Cc1cccc(Nc2c(-c3ccc(N4CCOCC4)cc3)nc3ncccn23)c1 | -14.7 | 0.731 µM [falling, full curve, poor fit] | –
CCOC(=O)c1c(-c2ccc(C)cc2)csc1NC(=O)/C(C#N)=C/c1ccc(O)c(OC)c1 | – | 10.3 µM [falling, partial curve] | –
O=C(CSc1nc(=O)n(Cc2ccccn2)c2c1CCC2)Nc1ccc(F)cc1F | 19.3 | – | –
COc1cc(C)ccc1OCC(=O)Nc1ccccc1N1CCOCC1 | 7.43 | 6.51 µM [rising, partial curve, poor fit] | –
COCCCN1C(=O)C(=O)/C(=C(/O)c2ccc(S(=O)(=O)N3CCOCC3)cc2)C1c1ccc(F)cc1 (centres undefined) | 90.8 | – | 23.1 µM [rising, partial curve]
CCN(c1ccccc1)S(=O)(=O)c1ccc2ccccc2c1 | 28.1 | 9.2 µM [rising, partial curve, poor fit] | –
Cc1ccc2[nH]c(O)c(N=O)c2c1 | -2.77 | 3.66 µM [falling, partial curve, poor fit] | 5.8 µM [falling, single point]
CCOC(=O)C1CCCN(Cc2c(Cl)cccc2Cl)C1 (centres undefined) | -23.6 | 4.11 µM [falling, full curve, poor fit] | –
COc1ccnc(Oc2ccc(F)cc2)c1-c1ncn[nH]1 | -42.6 | – | 18.4 µM [falling, single point]
COCCN1C(=O)N(c2cccc(OC)c2)C(=O)C1CC(=O)Nc1ccc(OC)cc1 (centres undefined) | -22.1 | 29.1 µM [rising, single point] | –
O=c1c2ccccc2nc2n1C(CSc1ccc(F)cc1)CN2 (centres undefined) | 21.8 | 29.1 µM [rising, single point] | –
OC(COCCOc1ccc(Br)cc1)CN1CCN(Cc2ccccc2)CC1 (centres undefined) | – | 1.84 µM [rising, partial curve] | –
COc1cccc(N2CCN(C(=O)Cn3c(=O)oc4ccccc43)CC2)c1 | -18.4 | 29.1 µM [falling, single point] | –
Cc1c[n+](CC(=O)c2ccccc2)c(C)cn1 | -27 | 0.58 µM [falling, single point] | –
Cc1ccc(-c2noc(CCC(=O)NCCN3CCOCC3)n2)cc1 | 11.2 | 0.146 µM [falling, full curve] | –
CCn1c(CCNC(=O)c2ccc(OC)cc2)nnc1SCc1ccc(Cl)c(Cl)c1 | -44.5 | 14.6 µM [falling, partial curve] | 16.4 µM [falling, partial curve, poor fit]
Cc1ccccc1OCC(=O)NCC(c1ccco1)N1CCCCC1 (centres undefined) | -5.52 | 0.13 µM [rising, full curve, poor fit] | –
C=CCN1C(=O)C(CC(=O)Nc2ccc(OC)cc2)SC1=Nc1ccc(S(N)(=O)=O)cc1 (centres undefined) | -1.33 | 0.00517 µM [falling, full curve, poor fit] | –
